# Results are given in words; binding and its absence hold for the method and conditions named. In cells and extracts the contact can be indirect. A yes stands for co-enrichment or nearness to the bait. Other partners may have been found.
# B1: CTCF (protein, UniProt P49711 1-727)
# chain: MEGDAVEAIVEESETFIKGKERKTYQRRREGGQEEDACHLPQNQTDGGEVVQDVNSSVQMVMMEQLDPTLLQMKTEVMEGTVAPEAEAAVDDTQIITLQVVNMEEQPINIGELQLVQVPVPVTVPVATTSVEELQGAYENEVSKEGLAESEPMICHTLPLPEGFQVVKVGANGEVETLEQGELPPQEDPSWQKDPDYQPPAKKTKKTKKSKLRYTEEGKDVDVSVYDFEEEQQEGLLSEVNAEKVVGNMKPPKPTKIKKKGVKKTFQCELCSYTCPRRSNLDRHMKSHTDERPHKCHLCGRAFRTVTLLRNHLNTHTGTRPHKCPDCDMAFVTSGELVRHRRYKHTHEKPFKCSMCDYASVEVSKLKRHIRSHTGERPFQCSLCSYASRDTYKLKRHMRTHSGEKPYECYICHARFTQSGTMKMHILQKHTENVAKFHCPHCDTVIARKSDLGVHLRKQHSYIEQGKKCRYCDAVFHERYALIQHQKSHKNEKRFKCDQCDYACRQERHMIMHKRTHTGEKPYACSHCDKTFRQKQLLDMHFKRYHDPNFVPAAFVCSKCGKTFTRRNTMARHADNCAGPDGVEGENGGETKKSKRGRKRKMRSKKEDSSDSENAEPDLDDNEDEEEPAVEIEPEPEPQPVTPAPPPAKKRRGRPPGRTNQPKQNQPTAIIQVEDQNTGAIENIIVEVKKEPDAEPAEGEEEEAQPAATDAPNGDLTPEMILSMMDR
# Target: RCOR1 (human (endogenous in 1205Lu, 451Lu and SKMEL5)) (UniProt Q9UKL0)
# Experiment: affinity purification with mass spectrometry; IP of endogenous LSD1 or RCOR1 from 1205Lu and 451Lu melanoma cells (DMSO control), LC-MS/MS, in duplicate
binder,measurement,value
B1,binding,binds

# — PMC12892918
